PubChem BioAssay AID651640 (Broad Institute, 2012)
Several values for one entry are separate records, joined by “and”; a condition that tells them apart may be missing. Equal entries are not always repeated. Hit rate of the full screen: of about 350,000 compounds, about 6,000 (1.7%) were called active. This list was built around the results that the source calls inconclusive (neither active nor inactive); the mix of calls is not that of the screen. Rule as the data show it: active = CPE inhibition above about 20% (passing the limit was not always enough); inconclusive = no clear call, values can overlap the other calls; tested in BHK-21 cells. Some compounds were tested as several samples or in several runs, with calls that do not always agree.

Assay: protection of cells from dengue 2 killing – plate reader, single concentration, primary screen (AID 651640);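 also: 0% = median of neutral control wells and 100% = median of positive control wells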
Conditions: DENV2-infected cells, cytopathic effect rescue, at 9.99 µM, stronger effect = higher value

Row | SMILES | CPE inhibition
1 | COc1cccc(-c2nc(CS(=O)(=O)CC(=O)Nc3c(C)cccc3C)c(C)o2)c1 | inconclusive: 24.1%
2 | CCn1cc(C(=O)N2CCCC(N3CCN(c4ccccc4C)CC3)C2)cn1 (stereo unspecified) | inconclusive: 36.6%
3 | N#C[C@@H]1[C@@H](c2ccccc2)[C@@H](CO)N1C(=O)c1ccccc1F | inconclusive: 34.9%
4 | CC(C)[C@@H]1CC[C@@H](C)C[C@H]1OC(=O)C[n+]1cc(-c2ccc(Cl)cc2)n2c1CCCCC2 | inactive: -18.6%
5 | COc1ccc(NC(=O)CN(C)C(C)C(=O)NC(=O)NC2CCCCC2)cc1 (stereo unspecified) | inconclusive: 21.6%
6 | COc1ccc(S(=O)(=O)Nc2ccc3c(c2)C(=O)N([C@H](C)CO)C[C@H](C)[C@H](CN(C)Cc2ccc(C(=O)O)cc2)OCCCC[C@H](C)O3)cc1 | inactive: 11.2%
7 | COc1ccc(S(=O)(=O)N(C)C[C@H]2OCCCC[C@H](C)Oc3ccc(NC(=O)NC4CCCCC4)cc3C(=O)N([C@H](C)CO)C[C@H]2C)cc1 | inactive: -8.11%
8 | Cc1ccc(OCC(=O)Oc2c(C)cccc2C)cc1C | inconclusive: 29.7%
9 | CC(=O)N1[C@H](CO)[C@@H]2c3ccccc3N(S(=O)(=O)c3ccc(F)cc3)C[C@@H]21 | inactive: -7.6%
10 | Oc1ccc(-c2csc(Nc3ncccn3)n2)cc1 | inactive: -0.343%
11 | COc1ccc(CN(C)C[C@@H]2Oc3c(NC(=O)CCCCCC(=O)Nc4ccccc4N)cccc3C(=O)N([C@@H](C)CO)C[C@H]2C)cc1 | inactive: -6.29%
12 | CN(C)CC(=O)N1[C@H](C#N)[C@@H](c2ccc(C#CC3CC3)cc2)[C@@H]1CO | inconclusive: 83.9%
13 | C[C@H](CO)N1C[C@H](C)[C@H](CN(C)C(=O)CCC(F)(F)F)OCCCC[C@H](C)Oc2ccc(NC(=O)CCCN(C)C)cc2C1=O | inactive: 1.34%
14 | OC[C@H]1[C@@H](c2ccc(-c3cccc(F)c3)cc2)[C@@H]2CN(Cc3cncnc3)CCCCN12 | inconclusive: 52.5%
15 | CCN(CC)C(=O)C1=C(C)N(Cc2ccc(OC)cc2)C(=O)C(CC(=O)NC2CCCCC2)C1 (stereo unspecified) | inconclusive: 68.5%
16 | Cc1ccccc1NC(=O)COC(=O)c1ccc(CSc2ccc(Cl)cc2)cc1 | inconclusive: 56%
17 | O=C(Nc1ccc2c(c1)OCO2)c1cc(C2CC2)on1 | inconclusive: 41.2%
18 | Cc1ccc(NC(=O)c2[nH]cnc2C(=O)NN)cc1 | inactive: 7.27%
19 | COc1cccc(-c2cccc(-c3nc(C(=O)O)cc4c3[C@@H](CCO)N(S(=O)C(C)(C)C)C4)c2)c1 (stereo partly specified) | inconclusive: 23.9%
20 | CSc1ccc(Cn2c(C)c(C(=O)NCc3ccc4c(c3)OCCO4)sc2=O)cc1 | inconclusive: 36.4%
21 | COc1ccc(-c2cc(N3C(=O)Nc4ccccc4N3O)n[nH]2)cc1OC | active: 37.5%
22 | COC(=O)[C@H]1[C@H](CO)[C@H]2Cn3c(ccc(-c4cccc(F)c4)c3=O)[C@H]2N1Cc1ccccn1 | inconclusive: 66.3%
23 | CCOc1ccccc1NC(=O)CCc1nnc2ccc(NCc3ccco3)nn12 | inconclusive: 41.6%
24 | Cc1ccc(NC(=O)CN(C)C(=O)c2ccc(-n3cncn3)c([N+](=O)[O-])c2)cc1 | inconclusive: 42.7%

Row | SMILES | CPE inhibition
25 | C[C@H](CO)N1C[C@H](C)[C@@H](CN(C)Cc2ccncc2)Oc2c(NS(=O)(=O)c3cccs3)cccc2C1=O | active: 33.8%
26 | CCOc1ccccc1NC(=O)CSc1nnc(CNC(=O)c2cc(OC)c(OC)c(OC)c2)o1 | inconclusive: 37.3%
27 | Cc1cc(=O)[nH]c(-c2ccc(Cl)cc2)n1 | inconclusive: 28.1%
28 | COc1ccc(CNS(=O)(=O)c2cc(Br)cc3c2N(C(C)=O)C(C)C3)cc1 (stereo unspecified) | inconclusive: 24.4%
29 | Cc1noc(C)c1NC(=O)N(C)C[C@H]1OCc2ccccc2-c2c(n(C)c3ccccc23)C(=O)N([C@H](C)CO)C[C@@H]1C | inactive: -1.98%
30 | C[C@@H]1CN([C@@H](C)CO)C(=O)c2cc(C3=CCCCC3)cnc2O[C@H]1CN(C)Cc1cccc(F)c1 | inactive: -8%
31 | CCc1ccc(NC(=O)NCc2cccnc2)cc1 | inconclusive: 22%
32 | O=C(OCc1ccccc1)N1CCC2CC1c1ccc(/C=C/CCCCl)cc12 (stereo unspecified) | inconclusive: 21.9%
33 | COc1ccc(S(=O)(=O)N(C)C[C@H]2Oc3c(NC(=O)c4nc5ccccc5s4)cccc3C(=O)N([C@H](C)CO)C[C@H]2C)cc1 | inactive: 1.23%
34 | C[C@@H]1CCCCO[C@@H](CN(C)C(=O)Nc2ccc(F)cc2)[C@H](C)CN([C@H](C)CO)C(=O)c2cc(NC(=O)Nc3cccc4ccccc34)ccc2O1 | inconclusive: 29.2%
35 | COc1ccc(-c2cnc3c(c2)C(=O)N([C@H](C)CO)C[C@H](C)[C@H](CN(C)Cc2ccccc2)O3)cc1 | inconclusive: 47.2% and inconclusive: 70.8%
36 | O=[N+]([O-])c1ccc(COc2ccccc2CO)cc1 | inconclusive: 57.5%
37 | C[C@@H]1CN([C@@H](C)CO)C(=O)c2cccc(NS(=O)(=O)c3cccs3)c2O[C@@H]1CN(C)CC1CC1 | active: 30.5%
38 | CCc1ccccc1NC(=O)CN(C)C(=O)CSc1nnc(Nc2ccc(C)cc2)s1 | inconclusive: 62.6%
39 | Cn1c(N)c(C(=O)COC(=O)c2cc(S(=O)(=O)N3CCOCC3)ccc2F)c(=O)n(C)c1=O | inconclusive: 26.3%
40 | O=C(O)C1CN(C(=O)c2ccccc2)c2cc(Cl)ccc2O1 (stereo unspecified) | inconclusive: 23.6%
41 | COc1cc(CNCc2ccc(SC)cc2)cc(OC)c1 | inconclusive: 34.8%
42 | COC(=O)[C@]1(Cc2ccccc2)N[C@H](CN(C)C(C)=O)[C@@H]2C(=O)N(C)C(=O)[C@@H]21 | active: 22.5%
43 | Cc1noc(C)c1S(=O)(=O)Nc1ccc2c(c1)C(=O)N([C@H](C)CO)C[C@H](C)[C@H](CN(C)C(=O)NC(C)C)OCCCC[C@@H](C)O2 | inconclusive: 24.7%
44 | C/C=C/c1cnc2c(c1)C(=O)N([C@@H](C)CO)C[C@@H](C)[C@@H](CN(C)C(=O)c1cccc(F)c1)O2 | inactive: 9.92%
45 | COc1ccccc1-c1cccc2c3c([nH]c12)[C@@H]1C[C@H]2[C@@H](C(=O)N1CC3)[C@H](C)ON2C | inconclusive: 56.1%
46 | COCCNc1nnc(SCC(=O)c2cc(C)n(C3CC3)c2C)s1 | inconclusive: 22.7%
47 | COc1ccc(S(=O)(=O)N(C)C[C@H]2Oc3c(NC(=O)c4ccc(-c5nccs5)cc4)cccc3C(=O)N([C@H](C)CO)C[C@@H]2C)cc1 | inconclusive: 24.2%
48 | Cc1cn(CC(=O)N(C)Cc2ccco2)c(=O)[nH]c1=O | inconclusive: 52.8%

In another format: results already given

| Row | SMILES | CPE inhibition |
| --- | --- | --- |
| 15 | CCN(CC)C(=O)C1=C(C)N(Cc2ccc(OC)cc2)C(=O)C(CC(=O)NC2CCCCC2)C1 (stereo unspecified) | inconclusive: 68.5% |
| 20 | CSc1ccc(Cn2c(C)c(C(=O)NCc3ccc4c(c3)OCCO4)sc2=O)cc1 | inconclusive: 36.4% |
| 29 | Cc1noc(C)c1NC(=O)N(C)C[C@H]1OCc2ccccc2-c2c(n(C)c3ccccc23)C(=O)N([C@H](C)CO)C[C@@H]1C | inactive: -1.98% |

The listing continues:

Row | SMILES | CPE inhibition
49 | C[C@@H]1CCCCO[C@@H](CN(C)C(=O)c2ccncc2)[C@@H](C)CN([C@H](C)CO)C(=O)c2cc(NC(=O)CCC(F)(F)F)ccc2O1 | inconclusive: 77%
50 | CCC1CCCCN1CCCNC(=O)c1ccc2c(c1)N(Cc1c(F)cccc1Cl)C(=O)CS2 (stereo unspecified) | inconclusive: 76.6%
51 | Cn1ncc([N+](=O)[O-])c1C(=O)N/N=C/c1c[nH]c2ccccc12 | inactive: -0.337%
52 | COCCCNC(=O)C[C@@H]1C[C@@]2(C(=O)OC)CC(C)(C)CC=C2N(Cc2ccco2)C1=O | active: 20.9%
53 | CC(=O)N1[C@H](CNC(=O)CN2CCOCC2)[C@@H](c2ccccc2)[C@@H]1CO | inconclusive: 64.8%
54 | CCCc1c(C(=O)N/N=C/c2ccoc2)nnn1-c1nonc1N | active: 20.8%
55 | CSc1nc(Cl)c(Cc2ccc(OC(C)C)cc2)c(N(C)C)n1 | inconclusive: 33.3%
56 | O=C1NC(Cc2ccc(O)cc2)c2nc3ccc(F)cc3c(=O)n2-c2ncccc21 (stereo unspecified) | inactive: -0.688%
57 | C[C@H](CO)N1C[C@H](C)[C@H](CN(C)S(=O)(=O)c2ccc(Cl)cc2)OCCCC[C@H](C)Oc2ccc(NC(=O)CCC(F)(F)F)cc2C1=O | inconclusive: 79.5%
58 | N#CCC(=O)Nc1ccc(C(=O)OC(C(=O)Nc2ccc([N+](=O)[O-])cc2Br)c2ccccc2)cc1 (stereo unspecified) | inconclusive: 39.2%
59 | CCCC#Cc1ccc([C@H]2[C@H](CO)N3C(=O)CN(C(=O)Nc4ccc(F)cc4)C[C@@H]23)cc1 | inactive: -2.06%
60 | CCCCN(CC)CCCNC(=S)Nc1ccc2nc(N3CCN(C)CC3)cc(C)c2c1 | inconclusive: 20.2%
61 | CCOC(=O)C(=CNc1ccc(Cl)cn1)C(=O)OCC | active: 66.6%
62 | COC(=O)[C@H](Cc1ccccc1)NS(=O)(=O)c1ccc(F)cc1Br | inconclusive: 36%
63 | O=C(COc1ccccc1F)NNC(=O)c1cc(Br)ccc1Cl | inconclusive: 37.3%
64 | CC1CCN(C(C)C(=O)Nc2ccc(S(=O)(=O)N3CCCC3)cc2)CC1 (stereo unspecified) | inconclusive: 29.4%
65 | C[C@@H]1CN([C@@H](C)CO)C(=O)c2cc(C#Cc3ccccc3)cnc2O[C@H]1CN(C)S(=O)(=O)c1ccccc1F | inconclusive: 48.6%
66 | C[C@@H]1CCCCO[C@H](CN(C)S(=O)(=O)c2ccccc2)[C@@H](C)CN([C@@H](C)CO)C(=O)c2cc(NC(=O)c3ccncc3)ccc2O1 | active: 82.7%
67 | CSc1ncnc2c1ncn2CCCNCc1cccs1 | inconclusive: 56.6%
68 | COc1ccc(NC(=O)N(C)C[C@@H]2Oc3ccc(NS(=O)(=O)c4ccccc4)cc3CC(=O)N([C@H](C)CO)C[C@@H]2C)cc1 | active: 39%
69 | COCC#Cc1ccc2c(c1)O[C@H](CN(C)C(=O)NC(C)C)[C@@H](C)CN([C@H](C)CO)S2(=O)=O | inactive: -7.42%
70 | Cc1csc(NC(=O)CCn2c(=O)oc3ccc(Cl)cc32)n1 | inactive: 7.27%
71 | CCN(CC)C(=O)C1=C(C)N(Cc2ccccc2)C(=O)C(CC(=O)NCc2cccc3ccccc23)C1 (stereo unspecified) | inconclusive: 66%
